Results from the supplement of paper PMC10849652.
The list shows a part of the results.

Protein sequences, listed by entry. Tags and fused reporters are not part of them. Lines headed by an entry give the natural chain unless they say otherwise; changes in a name come on top.
UniProt Q5VUA4: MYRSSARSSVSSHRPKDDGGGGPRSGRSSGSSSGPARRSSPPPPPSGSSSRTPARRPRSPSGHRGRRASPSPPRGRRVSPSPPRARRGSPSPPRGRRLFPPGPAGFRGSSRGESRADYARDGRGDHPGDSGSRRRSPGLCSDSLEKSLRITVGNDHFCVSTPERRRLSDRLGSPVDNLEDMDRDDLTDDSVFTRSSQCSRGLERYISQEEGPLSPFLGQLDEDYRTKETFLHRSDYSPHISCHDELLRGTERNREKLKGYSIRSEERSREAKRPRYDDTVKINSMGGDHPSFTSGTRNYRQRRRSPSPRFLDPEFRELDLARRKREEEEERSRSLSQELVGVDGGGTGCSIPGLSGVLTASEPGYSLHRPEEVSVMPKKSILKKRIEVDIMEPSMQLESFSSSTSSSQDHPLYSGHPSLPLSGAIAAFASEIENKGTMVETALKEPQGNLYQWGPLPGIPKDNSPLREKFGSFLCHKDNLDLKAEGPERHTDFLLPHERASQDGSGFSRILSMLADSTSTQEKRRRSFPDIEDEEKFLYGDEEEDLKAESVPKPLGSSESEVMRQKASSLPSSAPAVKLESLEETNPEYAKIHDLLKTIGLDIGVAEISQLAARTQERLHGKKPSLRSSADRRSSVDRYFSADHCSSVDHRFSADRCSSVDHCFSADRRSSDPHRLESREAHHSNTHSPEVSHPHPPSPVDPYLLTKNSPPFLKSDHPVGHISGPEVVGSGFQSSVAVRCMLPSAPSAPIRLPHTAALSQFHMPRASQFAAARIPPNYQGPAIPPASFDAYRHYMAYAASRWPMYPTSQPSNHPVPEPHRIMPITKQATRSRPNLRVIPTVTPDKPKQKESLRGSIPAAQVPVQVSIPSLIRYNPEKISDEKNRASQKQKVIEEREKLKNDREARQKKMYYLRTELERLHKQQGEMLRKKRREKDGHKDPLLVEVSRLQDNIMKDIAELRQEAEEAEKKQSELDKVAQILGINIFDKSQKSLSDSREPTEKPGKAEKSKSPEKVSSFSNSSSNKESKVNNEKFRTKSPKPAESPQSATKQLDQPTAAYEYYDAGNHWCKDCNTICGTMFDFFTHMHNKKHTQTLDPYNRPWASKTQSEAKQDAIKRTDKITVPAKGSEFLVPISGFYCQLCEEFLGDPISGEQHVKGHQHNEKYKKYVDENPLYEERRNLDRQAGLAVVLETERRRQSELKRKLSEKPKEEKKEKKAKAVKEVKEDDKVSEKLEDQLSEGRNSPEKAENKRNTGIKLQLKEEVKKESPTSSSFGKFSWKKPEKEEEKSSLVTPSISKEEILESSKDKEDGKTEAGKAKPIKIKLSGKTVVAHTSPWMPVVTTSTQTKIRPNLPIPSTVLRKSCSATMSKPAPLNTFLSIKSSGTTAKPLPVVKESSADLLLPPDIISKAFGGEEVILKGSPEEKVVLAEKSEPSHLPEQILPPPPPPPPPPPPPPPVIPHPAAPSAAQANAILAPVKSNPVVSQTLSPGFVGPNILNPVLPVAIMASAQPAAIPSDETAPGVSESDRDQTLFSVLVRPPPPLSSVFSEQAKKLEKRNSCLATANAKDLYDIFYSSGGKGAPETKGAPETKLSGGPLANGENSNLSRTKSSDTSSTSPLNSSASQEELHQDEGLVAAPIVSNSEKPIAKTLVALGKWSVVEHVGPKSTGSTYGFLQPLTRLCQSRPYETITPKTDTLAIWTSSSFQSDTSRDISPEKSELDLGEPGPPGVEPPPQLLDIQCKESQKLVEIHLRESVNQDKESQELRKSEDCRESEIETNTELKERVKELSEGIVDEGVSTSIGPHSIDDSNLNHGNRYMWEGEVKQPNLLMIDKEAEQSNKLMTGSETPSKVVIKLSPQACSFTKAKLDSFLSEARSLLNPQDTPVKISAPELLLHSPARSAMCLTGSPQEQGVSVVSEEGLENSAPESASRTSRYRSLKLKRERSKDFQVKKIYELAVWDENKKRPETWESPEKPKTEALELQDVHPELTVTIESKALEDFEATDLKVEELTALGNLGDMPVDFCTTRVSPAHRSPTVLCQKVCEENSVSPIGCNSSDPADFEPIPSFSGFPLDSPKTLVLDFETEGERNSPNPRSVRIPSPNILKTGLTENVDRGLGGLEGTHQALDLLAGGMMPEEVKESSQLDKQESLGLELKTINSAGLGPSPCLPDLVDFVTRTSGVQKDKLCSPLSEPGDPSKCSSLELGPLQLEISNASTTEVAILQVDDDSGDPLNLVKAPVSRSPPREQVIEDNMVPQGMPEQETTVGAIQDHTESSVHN
UniProt Q9UL40: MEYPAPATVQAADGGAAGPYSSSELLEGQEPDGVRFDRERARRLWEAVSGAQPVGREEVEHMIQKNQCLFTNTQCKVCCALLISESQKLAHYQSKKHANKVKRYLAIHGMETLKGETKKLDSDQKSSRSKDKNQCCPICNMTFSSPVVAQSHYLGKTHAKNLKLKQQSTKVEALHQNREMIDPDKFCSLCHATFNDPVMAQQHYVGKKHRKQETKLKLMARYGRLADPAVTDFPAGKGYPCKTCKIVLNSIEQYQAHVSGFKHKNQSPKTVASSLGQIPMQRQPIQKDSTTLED
UniProt Q96PM9: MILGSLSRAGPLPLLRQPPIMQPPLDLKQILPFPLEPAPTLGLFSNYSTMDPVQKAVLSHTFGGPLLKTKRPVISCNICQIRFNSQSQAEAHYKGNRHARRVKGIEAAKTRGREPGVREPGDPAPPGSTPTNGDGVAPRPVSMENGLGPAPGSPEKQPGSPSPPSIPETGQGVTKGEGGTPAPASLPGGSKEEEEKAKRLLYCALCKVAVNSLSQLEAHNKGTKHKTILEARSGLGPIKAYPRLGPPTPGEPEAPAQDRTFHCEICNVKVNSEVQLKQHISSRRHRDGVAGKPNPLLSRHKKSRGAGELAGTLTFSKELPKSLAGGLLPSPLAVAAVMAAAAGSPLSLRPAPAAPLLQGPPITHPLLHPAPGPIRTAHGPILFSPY
UniProt Q8NAF0: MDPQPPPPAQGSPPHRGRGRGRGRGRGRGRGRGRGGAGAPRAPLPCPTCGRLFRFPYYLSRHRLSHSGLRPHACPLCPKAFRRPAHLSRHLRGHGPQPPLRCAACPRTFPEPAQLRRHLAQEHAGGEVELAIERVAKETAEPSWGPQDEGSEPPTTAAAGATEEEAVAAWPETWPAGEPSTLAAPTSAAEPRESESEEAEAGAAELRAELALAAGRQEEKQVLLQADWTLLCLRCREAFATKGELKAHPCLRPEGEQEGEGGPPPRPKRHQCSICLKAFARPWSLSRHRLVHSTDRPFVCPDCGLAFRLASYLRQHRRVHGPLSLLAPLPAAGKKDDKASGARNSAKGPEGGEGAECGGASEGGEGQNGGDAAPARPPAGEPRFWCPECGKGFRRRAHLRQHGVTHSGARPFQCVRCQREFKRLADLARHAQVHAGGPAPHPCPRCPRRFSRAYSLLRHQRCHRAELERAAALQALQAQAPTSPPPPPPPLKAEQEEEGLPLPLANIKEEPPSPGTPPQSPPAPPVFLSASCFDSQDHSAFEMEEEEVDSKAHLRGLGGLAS
UniProt Q9UK33: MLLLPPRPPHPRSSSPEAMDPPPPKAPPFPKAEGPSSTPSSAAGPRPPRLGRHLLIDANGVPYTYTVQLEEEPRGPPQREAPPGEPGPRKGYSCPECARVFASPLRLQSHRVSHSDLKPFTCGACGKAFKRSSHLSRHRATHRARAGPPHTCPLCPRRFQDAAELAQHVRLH
UniProt Q8TF68: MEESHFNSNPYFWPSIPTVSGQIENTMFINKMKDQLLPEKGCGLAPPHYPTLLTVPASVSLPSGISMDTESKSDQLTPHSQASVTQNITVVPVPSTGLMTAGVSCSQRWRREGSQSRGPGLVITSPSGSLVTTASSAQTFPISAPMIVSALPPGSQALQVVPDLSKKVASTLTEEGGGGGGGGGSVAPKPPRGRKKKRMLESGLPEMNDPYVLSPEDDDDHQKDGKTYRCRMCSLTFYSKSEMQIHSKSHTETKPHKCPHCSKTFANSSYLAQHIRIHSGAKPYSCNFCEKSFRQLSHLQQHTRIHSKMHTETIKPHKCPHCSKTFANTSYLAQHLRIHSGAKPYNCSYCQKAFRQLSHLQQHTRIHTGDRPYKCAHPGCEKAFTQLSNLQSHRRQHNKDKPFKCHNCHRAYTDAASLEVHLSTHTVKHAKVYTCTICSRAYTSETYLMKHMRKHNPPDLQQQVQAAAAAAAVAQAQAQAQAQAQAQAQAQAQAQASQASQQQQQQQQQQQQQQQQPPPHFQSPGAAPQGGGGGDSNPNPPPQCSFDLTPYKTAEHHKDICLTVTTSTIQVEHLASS
UniProt Q96KM6: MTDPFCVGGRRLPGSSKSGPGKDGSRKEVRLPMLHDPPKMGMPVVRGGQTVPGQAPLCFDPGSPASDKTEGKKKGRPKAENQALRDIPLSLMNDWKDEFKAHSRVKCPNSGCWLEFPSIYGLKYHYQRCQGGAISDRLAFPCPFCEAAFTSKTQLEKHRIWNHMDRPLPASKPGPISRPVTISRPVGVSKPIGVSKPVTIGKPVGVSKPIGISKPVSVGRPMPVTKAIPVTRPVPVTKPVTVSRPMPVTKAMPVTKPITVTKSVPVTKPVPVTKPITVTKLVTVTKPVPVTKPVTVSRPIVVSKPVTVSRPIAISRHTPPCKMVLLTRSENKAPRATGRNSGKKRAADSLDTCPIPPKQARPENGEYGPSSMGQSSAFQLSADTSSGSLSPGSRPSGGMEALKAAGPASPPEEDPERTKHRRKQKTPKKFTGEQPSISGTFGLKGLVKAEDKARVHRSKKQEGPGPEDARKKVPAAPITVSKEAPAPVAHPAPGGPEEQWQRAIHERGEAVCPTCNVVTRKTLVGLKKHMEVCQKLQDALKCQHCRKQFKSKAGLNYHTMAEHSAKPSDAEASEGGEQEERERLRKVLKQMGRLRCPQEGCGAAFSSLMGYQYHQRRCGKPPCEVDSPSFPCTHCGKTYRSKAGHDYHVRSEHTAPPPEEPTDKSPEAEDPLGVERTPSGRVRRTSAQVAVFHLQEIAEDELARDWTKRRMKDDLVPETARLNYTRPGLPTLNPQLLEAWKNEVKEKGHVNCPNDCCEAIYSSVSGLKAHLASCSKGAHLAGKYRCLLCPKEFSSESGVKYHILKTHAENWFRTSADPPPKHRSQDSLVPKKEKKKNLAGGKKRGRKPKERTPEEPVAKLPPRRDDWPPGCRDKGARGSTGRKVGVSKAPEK
UniProt Q9H609: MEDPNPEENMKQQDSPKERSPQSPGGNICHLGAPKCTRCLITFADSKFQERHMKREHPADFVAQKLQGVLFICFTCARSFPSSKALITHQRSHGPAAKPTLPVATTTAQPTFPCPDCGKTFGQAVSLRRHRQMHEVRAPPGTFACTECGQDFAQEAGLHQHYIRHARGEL
UniProt A6NFI3: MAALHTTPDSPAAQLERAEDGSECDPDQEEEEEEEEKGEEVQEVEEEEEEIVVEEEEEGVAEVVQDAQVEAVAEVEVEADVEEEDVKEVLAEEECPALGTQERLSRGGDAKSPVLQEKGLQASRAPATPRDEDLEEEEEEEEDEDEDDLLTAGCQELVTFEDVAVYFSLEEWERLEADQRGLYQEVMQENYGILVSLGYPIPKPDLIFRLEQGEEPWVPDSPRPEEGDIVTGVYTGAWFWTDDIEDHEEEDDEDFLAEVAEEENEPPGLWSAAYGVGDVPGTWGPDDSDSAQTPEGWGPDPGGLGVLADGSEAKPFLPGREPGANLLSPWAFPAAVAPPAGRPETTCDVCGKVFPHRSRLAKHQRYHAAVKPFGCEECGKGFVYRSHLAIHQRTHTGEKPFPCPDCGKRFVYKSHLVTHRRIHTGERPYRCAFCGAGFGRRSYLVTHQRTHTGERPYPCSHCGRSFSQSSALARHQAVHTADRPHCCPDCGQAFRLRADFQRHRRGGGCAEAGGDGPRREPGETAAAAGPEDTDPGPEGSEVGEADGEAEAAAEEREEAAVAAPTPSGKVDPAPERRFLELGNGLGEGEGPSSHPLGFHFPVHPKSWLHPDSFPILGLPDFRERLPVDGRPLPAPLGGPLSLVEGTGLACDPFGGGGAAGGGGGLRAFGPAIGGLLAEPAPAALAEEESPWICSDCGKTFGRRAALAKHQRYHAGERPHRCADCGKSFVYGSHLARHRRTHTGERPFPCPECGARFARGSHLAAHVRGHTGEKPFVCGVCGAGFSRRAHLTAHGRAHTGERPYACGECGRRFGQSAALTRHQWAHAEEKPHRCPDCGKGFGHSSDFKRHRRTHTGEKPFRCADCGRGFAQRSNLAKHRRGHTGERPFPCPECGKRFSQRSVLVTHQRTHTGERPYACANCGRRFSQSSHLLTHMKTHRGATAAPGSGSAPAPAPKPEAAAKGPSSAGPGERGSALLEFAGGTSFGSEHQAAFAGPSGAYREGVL
UniProt Q8NB15: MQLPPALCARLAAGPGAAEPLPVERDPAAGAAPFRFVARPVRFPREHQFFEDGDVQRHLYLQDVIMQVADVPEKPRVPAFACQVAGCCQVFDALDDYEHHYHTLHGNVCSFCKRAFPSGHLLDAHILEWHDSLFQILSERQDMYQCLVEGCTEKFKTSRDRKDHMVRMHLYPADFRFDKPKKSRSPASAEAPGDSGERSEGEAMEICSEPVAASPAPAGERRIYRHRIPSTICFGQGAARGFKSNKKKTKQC

Tests used:
Test in all cases: log2 fold change, soluble protein after heating vs DMSO (PISA); higher = thermal stabilisation; K562 cells, 10 uM, 30 min; active = over 0.2 and 3.5 SD of the protein, either way, in both replicates (recomputed)
ZNF277 = ZNF277 (UniProt Q9NRM2)
How it was run: (§1)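 Soluble protein was defined as the supernatant after 21,000xg for 90 min. It came from K562 cells at 2×10^6 cells/mL given 10 μM compound for 30 min, heated in aliquots for 3 min across 48°C-58°C, pooled, and extracted in PBS with 0.5% NP-40 at 4°C, and was quantified by TMTpro 16plex LC-MS/MS with equalised channel sums. Thermal stability against control samples, from duplicates, is reported as log2 fold change.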

ZNF318 = ZNF318 (UniProt Q5VUA4)
How it was run: as §1

ZNF330 = ZNF330 (UniProt Q9Y3S2)
How it was run: as §1

ZNF346 = ZNF346 (UniProt Q9UL40)
How it was run: as §1

ZNF385A = ZNF385A (UniProt Q96PM9)
How it was run: as §1

ZNF428 = ZNF428 (UniProt M0QXZ5)
How it was run: as §1

ZNF579 = ZNF579 (UniProt Q8NAF0)
How it was run: as §1

ZNF580 = ZNF580 (UniProt Q9UK33)
How it was run: as §1

ZNF581 = ZNF581 (UniProt Q9P0T4)
How it was run: as §1

ZNF384 = ZNF384 (UniProt Q8TF68)
How it was run: as §1

ZNF512 = ZNF512 (UniProt Q96ME7)
How it was run: as §1

ZNF512B = ZNF512B (UniProt Q96KM6)
How it was run: as §1

ZNF576 = ZNF576 (UniProt Q9H609)
How it was run: as §1

ZNF316 = ZNF316 (UniProt A6NFI3)
How it was run: as §1

ZNF414 isoform 2 = ZNF414 isoform 2 (UniProt Q96IQ9)
How it was run: as §1

ZNF511 isoform 1 = ZNF511 isoform 1 (UniProt Q8NB15)
How it was run: as §1

ZNF444 = ZNF444 (UniProt Q8N0Y2)
How it was run: as §1

Measured: log2 fold change

CNc1nc(-c2ccc3c(N)n[nH]c3c2)cc(N2C[C@@H](C(=O)NC3CCCCC3)CC[C@H]2C)n1
inactive: ZNF277 = 0.11 | ZNF318 = -0.133 | ZNF330 = -0.034 | ZNF346 = -0.089 | ZNF385A 0.009 | ZNF428 = 0 | ZNF579 = 0.089 | ZNF580 = 0.128 | ZNF581 = 0.032

CNC(=O)c1ccccc1Nc1nc(Nc2ccc(N3CCOCC3)cc2OC)ncc1Cl
inactive: ZNF277 = 0.009 | ZNF330 = -0.001 | ZNF346 = 0.017 | ZNF384 = -0.052 | ZNF385A -0.008 | ZNF428 = -0.002 | ZNF512 = 0.151 | ZNF512B -0.061 | ZNF576 = -0.487 | ZNF579 = -0.019

Cn1c2cc(S(C)=O)sc2c2cnn(Cc3cccc(N)c3)c(=O)c21 (stereo not given)
inactive: ZNF277 = 0.084 | ZNF318 = -0.039 | ZNF330 = -0.036 | ZNF346 = 0.121 | ZNF385A 0.116 | ZNF428 = -0.081 | ZNF579 = 0.008 | ZNF580 = 0.259 | ZNF581 = 0.127

CC(C)N(C[C@H]1O[C@@H](n2cnc3c(N)ncnc32)[C@H](O)[C@@H]1O)[C@H]1C[C@@H](CCc2nc3cc(C(C)(C)C)ccc3[nH]2)C1 [pinometostat]
inactive: ZNF277 = 0.267 | ZNF316 = -0.056 | ZNF330 = 0.01 | ZNF346 = -0.008 | ZNF384 = 0.167 | ZNF414 isoform 2 = 0.001 | ZNF428 = 0.029 | ZNF512B 0.305 | ZNF579 = 0.02 | ZNF580 = -0.072

COC(=O)N[C@@H](C)CNc1nccc(-c2cn(C(C)C)nc2-c2cc(Cl)cc(NS(C)(=O)=O)c2F)n1 [encorafenib]
inactive: ZNF277 = -0.259 | ZNF316 = 0.159 | ZNF330 = -0.017 | ZNF346 = 0.044 | ZNF384 = 0.011 | ZNF385A -0.054 | ZNF414 isoform 2 = -0.2 | ZNF428 = -0.033 | ZNF511 isoform 1 = -0.03 | ZNF579 = -0.187 | ZNF580 = 0.143

c1cc(OCCN2CCCCC2)cc(-c2n[nH]c3ccc(-c4nnc[nH]4)cc23)c1
inactive: ZNF277 = -0.275 | ZNF316 = 0.036 | ZNF330 = -0.025 | ZNF346 = -0.038 | ZNF384 = -0.03 | ZNF385A -0.019 | ZNF414 isoform 2 = -0.181 | ZNF428 = 0.056 | ZNF511 isoform 1 = -0.043 | ZNF579 = 0.078 | ZNF580 = -0.083

C[C@@H](Oc1cc(-c2cnn(C3CCNCC3)c2)cnc1N)c1c(Cl)ccc(F)c1Cl [crizotinib]
inactive: ZNF277 = -0.181 | ZNF316 = 0.04 | ZNF330 = 0.01 | ZNF346 = -0.043 | ZNF384 = -0.214 | ZNF414 isoform 2 = -0.272 | ZNF428 = 0.044 | ZNF512B -0.006 | ZNF579 = 0.112 | ZNF580 = 0.164

Cc1ccc2c(=O)c3ccccc3n(CCCN)c2c1C
inactive: ZNF277 = -0.126 | ZNF330 = -0.112 | ZNF346 = 0.091 | ZNF384 = -0.058 | ZNF385A -0.192 | ZNF428 = -0.145 | ZNF511 isoform 1 = 0.17 | ZNF579 = -0.168 | ZNF580 = -0.196

CCN(CC)Cc1ccc2cc(COC(=O)Nc3ccc(C(=O)NO)cc3)ccc2c1 [givinostat]
inactive: ZNF277 = 0.199 | ZNF330 = -0.119 | ZNF346 = 0.007 | ZNF384 = -0.082 | ZNF385A 0.022 | ZNF428 = -0.029 | ZNF512 = 0.112 | ZNF512B 0.131 | ZNF576 = 0.026 | ZNF579 = 0.042

CC[C@@H]1C(=O)N(C)c2cnc(Nc3ccc(C(=O)NC4CCN(C)CC4)cc3OC)nc2N1C1CCCC1
inactive: ZNF277 = 0.328 | ZNF316 = 0.076 | ZNF330 = 0.005 | ZNF346 = 0.135 | ZNF384 = 0.289 | ZNF385A 0.146 | ZNF414 isoform 2 = 0.019 | ZNF428 = -0.039 | ZNF511 isoform 1 = -0.041 | ZNF579 = -0.017 | ZNF580 = 0.037

Cc1nc(Nc2ncc(C(=O)Nc3c(C)cccc3Cl)s2)cc(N2CCN(CCO)CC2)n1 [dasatinib]
inactive: ZNF277 = 0.019 | ZNF318 = -0.214 | ZNF330 = 0.006 | ZNF346 = 0.069 | ZNF385A 0.015 | ZNF428 = 0.009 | ZNF579 = -0.148 | ZNF580 = -0.085 | ZNF581 = 0.178

COc1ccc(Cn2ccc3ccc(C(=O)NO)cc32)cc1
inactive: ZNF277 = -0.073 | ZNF316 = 0.031 | ZNF330 = -0.027 | ZNF346 = -0.025 | ZNF384 = -0.22 | ZNF414 isoform 2 = 0.004 | ZNF428 = -0.014 | ZNF512B -0.07 | ZNF579 = 0.056 | ZNF580 = -0.134

CN(C)CC(=O)Nc1ccc2[nH]c(=O)c3ccccc3c2c1
inactive: ZNF277 = -0.003 | ZNF330 = -0.043 | ZNF346 = -0.024 | ZNF384 = -0.129 | ZNF385A -0.025 | ZNF414 isoform 2 = -0.024 | ZNF428 = -0.102 | ZNF444 = 0.195 | ZNF511 isoform 1 = 0.068 | ZNF579 = -0.026 | ZNF580 = 0.046

NC1(Cc2ccc(Cl)cc2)CCN(c2ncnc3[nH]ccc23)CC1
inactive: ZNF277 = -0.319 | ZNF330 = -0.041 | ZNF346 = 0.025 | ZNF384 = -0.035 | ZNF385A 0.39 | ZNF428 = 0.022 | ZNF511 isoform 1 = 0.079 | ZNF579 = -0.064 | ZNF580 = 0.183

Cc1ccc(-n2nc(C(C)(C)C)cc2NC(=O)Nc2ccc(OCCN3CCOCC3)c3ccccc23)cc1 [doramapimod]
inactive: ZNF277 = 0.123 | ZNF316 = 0.132 | ZNF330 = -0.089 | ZNF346 = 0.024 | ZNF384 = 0.096 | ZNF414 isoform 2 = 0.009 | ZNF428 = -0.052 | ZNF512B 0.188 | ZNF579 = 0.11 | ZNF580 = 0.165

CN1CCN(CCOc2cc(OC3CCOCC3)c3c(Nc4c(Cl)ccc5c4OCO5)ncnc3c2)CC1 [saracatinib]
inactive: ZNF277 = -0.276 | ZNF318 = 0.003 | ZNF330 = -0.006 | ZNF346 = -0.027 | ZNF385A -0.052 | ZNF428 = 0.037 | ZNF579 = -0.025 | ZNF580 = 0.108 | ZNF581 = -0.484

CC(C)c1cnn2c(NCc3ccccc3)cc(NCCCCCCN)nc12
inactive: ZNF277 = -0.3 | ZNF330 = 0.029 | ZNF346 = 0.249 | ZNF384 = 0.051 | ZNF385A 0.102 | ZNF428 = 0.044 | ZNF512 = 0.321 | ZNF512B -0.001 | ZNF576 = 0.276 | ZNF579 = 0.054

COC(=O)[C@H](CCSC)NC(=O)c1ccc(NC[C@@H](N)CS)cc1-c1ccccc1
inactive: ZNF277 = -0.047 | ZNF330 = 0.035 | ZNF346 = 0.023 | ZNF384 = -0.019 | ZNF385A -0.085 | ZNF414 isoform 2 = 0.291 | ZNF428 = 0.065 | ZNF444 = 0.015 | ZNF511 isoform 1 = -0.201 | ZNF579 = -0.012 | ZNF580 = -0.082

O=C(Nc1nc2ccccc2n1CCN1CCOCC1)c1cccc([N+](=O)[O-])c1 [IRAK-1-4 Inhibitor I]
inactive: ZNF277 = -0.346 | ZNF316 = -0.022 | ZNF330 = 0.037 | ZNF346 = -0.029 | ZNF384 = -0.116 | ZNF414 isoform 2 = -0.124 | ZNF428 = 0.081 | ZNF512B -0.243 | ZNF579 = -0.096 | ZNF580 = 0.051

Cc1cccc(-c2[nH]c(C(C)(C)C)nc2-c2ccc3nccnc3c2)n1
inactive: ZNF277 = -0.107 | ZNF316 = -0.005 | ZNF330 = -0.084 | ZNF346 = -0.01 | ZNF384 = -0.077 | ZNF414 isoform 2 = -0.007 | ZNF428 = -0.06 | ZNF512B -0.148 | ZNF579 = -0.073 | ZNF580 = -0.183

NC(=O)c1ccc2nc(-c3ccc(Oc4ccc(Cl)cc4)cc3)[nH]c2c1
inactive: ZNF277 = -0.104 | ZNF330 = 0.066 | ZNF346 = -0.083 | ZNF384 = 0.041 | ZNF385A 0 | ZNF428 = -0.019 | ZNF512 = -0.014 | ZNF512B -0.187 | ZNF576 = 0.018 | ZNF579 = 0.042

CNC(=O)c1ccc(Nc2ncc(C(F)(F)F)c(NCc3nccnc3N(C)S(C)(=O)=O)n2)cc1 [defactinib]
inactive: ZNF277 = 0.161 | ZNF330 = 0.023 | ZNF346 = 0.156 | ZNF384 = 0.18 | ZNF385A 0.06 | ZNF414 isoform 2 = -0.176 | ZNF428 = -0.033 | ZNF444 = 0.301 | ZNF511 isoform 1 = -0.128 | ZNF579 = 0.019 | ZNF580 = -0.099

O=C(Nc1cccc(Nc2ncc(Br)c(NCCc3cnc[nH]3)n2)c1)N1CCCC1
inactive: ZNF277 = 0.034 | ZNF330 = 0.002 | ZNF346 = -0.011 | ZNF384 = -0.058 | ZNF385A -0.119 | ZNF428 = -0.025 | ZNF511 isoform 1 = 0.072 | ZNF580 = 0.062
active: ZNF579 = -0.377

Gathered by group, the entries above containing sulfur (five)
Cn1c2cc(S(C)=O)sc2c2cnn(Cc3cccc(N)c3)c(=O)c21 (stereo not given)
inactive: ZNF277 = 0.084 | ZNF318 = -0.039 | ZNF330 = -0.036 | ZNF346 = 0.121 | ZNF385A 0.116 | ZNF428 = -0.081 | ZNF579 = 0.008 | ZNF580 = 0.259 | ZNF581 = 0.127

COC(=O)N[C@@H](C)CNc1nccc(-c2cn(C(C)C)nc2-c2cc(Cl)cc(NS(C)(=O)=O)c2F)n1 [encorafenib]
inactive: ZNF277 = -0.259 | ZNF316 = 0.159 | ZNF330 = -0.017 | ZNF346 = 0.044 | ZNF384 = 0.011 | ZNF385A -0.054 | ZNF414 isoform 2 = -0.2 | ZNF428 = -0.033 | ZNF511 isoform 1 = -0.03 | ZNF579 = -0.187 | ZNF580 = 0.143

Cc1nc(Nc2ncc(C(=O)Nc3c(C)cccc3Cl)s2)cc(N2CCN(CCO)CC2)n1 [dasatinib]
inactive: ZNF277 = 0.019 | ZNF318 = -0.214 | ZNF330 = 0.006 | ZNF346 = 0.069 | ZNF385A 0.015 | ZNF428 = 0.009 | ZNF579 = -0.148 | ZNF580 = -0.085 | ZNF581 = 0.178

COC(=O)[C@H](CCSC)NC(=O)c1ccc(NC[C@@H](N)CS)cc1-c1ccccc1
inactive: ZNF277 = -0.047 | ZNF330 = 0.035 | ZNF346 = 0.023 | ZNF384 = -0.019 | ZNF385A -0.085 | ZNF414 isoform 2 = 0.291 | ZNF428 = 0.065 | ZNF444 = 0.015 | ZNF511 isoform 1 = -0.201 | ZNF579 = -0.012 | ZNF580 = -0.082

CNC(=O)c1ccc(Nc2ncc(C(F)(F)F)c(NCc3nccnc3N(C)S(C)(=O)=O)n2)cc1 [defactinib]
inactive: ZNF277 = 0.161 | ZNF330 = 0.023 | ZNF346 = 0.156 | ZNF384 = 0.18 | ZNF385A 0.06 | ZNF414 isoform 2 = -0.176 | ZNF428 = -0.033 | ZNF444 = 0.301 | ZNF511 isoform 1 = -0.128 | ZNF579 = 0.019 | ZNF580 = -0.099

Remaining list, next part

O=C(CCCCCCNC(=O)c1cnc(N(c2ccccc2)c2ccccc2Cl)nc1)NO [citarinostat]
inactive: ZNF277 = 0.306 | ZNF316 = 0.281 | ZNF330 = 0.018 | ZNF346 = -0.06 | ZNF384 = -0.258 | ZNF385A -0.004 | ZNF414 isoform 2 = 0.063 | ZNF428 = -0.066 | ZNF511 isoform 1 = 0.054 | ZNF579 = -0.089 | ZNF580 = -0.013
